Data taken from article PMC7465060.
No constants are given. Whether binding was seen depends on the method and setting. Binding seen in cells or lysates may run through a third protein. Some results given as binding are weak or reduced against the parent protein; the word gives no strength.

Protein sequences, listed by entry. Tags and fused reporters are not part of them.
UniProt Q13568: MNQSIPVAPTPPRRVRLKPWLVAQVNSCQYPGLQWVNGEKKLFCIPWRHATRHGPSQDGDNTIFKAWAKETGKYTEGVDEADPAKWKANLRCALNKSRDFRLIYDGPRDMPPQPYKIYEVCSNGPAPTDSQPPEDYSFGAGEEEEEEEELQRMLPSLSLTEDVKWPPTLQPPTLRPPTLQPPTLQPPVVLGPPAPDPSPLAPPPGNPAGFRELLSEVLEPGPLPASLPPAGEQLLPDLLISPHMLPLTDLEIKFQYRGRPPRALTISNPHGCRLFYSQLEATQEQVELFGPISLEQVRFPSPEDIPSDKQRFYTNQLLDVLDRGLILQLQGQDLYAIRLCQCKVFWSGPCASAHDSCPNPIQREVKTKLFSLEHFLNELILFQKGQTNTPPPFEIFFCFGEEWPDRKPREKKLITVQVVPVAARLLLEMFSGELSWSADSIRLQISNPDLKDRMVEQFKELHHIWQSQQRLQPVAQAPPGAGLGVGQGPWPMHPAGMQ
UniProt P30279: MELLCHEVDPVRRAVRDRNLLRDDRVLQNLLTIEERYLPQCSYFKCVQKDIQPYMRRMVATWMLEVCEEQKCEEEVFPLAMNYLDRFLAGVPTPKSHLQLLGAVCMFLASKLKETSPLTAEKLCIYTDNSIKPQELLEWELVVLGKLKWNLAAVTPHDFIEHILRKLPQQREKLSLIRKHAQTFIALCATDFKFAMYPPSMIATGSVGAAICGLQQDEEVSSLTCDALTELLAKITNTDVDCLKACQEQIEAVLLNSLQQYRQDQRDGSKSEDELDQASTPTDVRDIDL

Biological target: T1, FBXL8 (human (endogenous in MCF7 and MDA-MB231)) (UniProt Q96CD0)
T1 sequence: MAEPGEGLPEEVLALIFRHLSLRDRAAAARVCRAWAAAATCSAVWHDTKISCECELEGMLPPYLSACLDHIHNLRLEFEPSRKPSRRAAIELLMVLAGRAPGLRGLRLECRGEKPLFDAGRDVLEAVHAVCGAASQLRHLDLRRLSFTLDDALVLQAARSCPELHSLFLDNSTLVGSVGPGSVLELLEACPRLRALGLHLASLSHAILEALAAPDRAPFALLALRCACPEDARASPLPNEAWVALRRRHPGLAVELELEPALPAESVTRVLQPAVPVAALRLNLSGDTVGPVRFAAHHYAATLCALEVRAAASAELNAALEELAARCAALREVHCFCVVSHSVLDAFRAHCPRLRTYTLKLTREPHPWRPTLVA
Test: co-IP; total cell lysates of MCF7 or MDA-MB231 cells (48 h after FBXL8-siRNA or control siRNA) in CHAPS lysis buffer (20 mM Tris-HCl pH 7.5, 5 mM MgCl2, 137 mM KCl, 1 mM EDTA, 1 mM EGTA, 1% CHAPS), precleared, incubated overnight at 4 °C with anti-FBXL8 or control IgG2b antibody, protein G …; immunoblot for FBXL8, CCND2 or IRF5

| binding | Substance |
| --- | --- |
| binds | Interferon Regulatory Factor 5 (IRF5) (from UniProt Q13568 1-498) |
| binds | Cyclin D2 (CCND2) (from UniProt P30279 1-289) |
